Test results from paper doi:10.1101/2024.03.15.585069.
Results are given in words; binding and its absence hold for the method and conditions named. In cells and extracts the contact can be indirect. Here binding means that the protein was enriched with, or labelled near, the bait; the list need not be complete. For some of these results: No binding means not detected with the bait. Tags and fused reporters may be left off the sequences shown. Values belong to the binder of their own block, whether it stands above or below them.

Key:
Test in all cases: affinity purification with mass spectrometry
[1] = target: T1, GSRhino-TAP-tagged ICU11 (INCURVATA11) (Arabidopsis thaliana), Q3ED68; details: remark: other sources report otherwise
T1 chain: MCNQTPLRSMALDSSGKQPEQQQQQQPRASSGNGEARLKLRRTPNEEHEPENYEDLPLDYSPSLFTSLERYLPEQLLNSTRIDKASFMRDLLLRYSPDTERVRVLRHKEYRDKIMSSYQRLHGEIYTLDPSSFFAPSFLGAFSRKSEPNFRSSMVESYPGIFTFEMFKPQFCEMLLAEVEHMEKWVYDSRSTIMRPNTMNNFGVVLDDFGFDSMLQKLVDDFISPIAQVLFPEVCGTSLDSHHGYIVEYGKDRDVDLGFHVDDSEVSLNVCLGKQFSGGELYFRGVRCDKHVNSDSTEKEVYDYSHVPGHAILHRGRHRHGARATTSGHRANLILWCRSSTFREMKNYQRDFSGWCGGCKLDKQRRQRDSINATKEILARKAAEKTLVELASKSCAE

[2] = target: T2, GSRhino-TAP-tagged CP2 (CUPULIFORMIS2) (Arabidopsis thaliana) (UniProt P0DO23)
T2 sequence: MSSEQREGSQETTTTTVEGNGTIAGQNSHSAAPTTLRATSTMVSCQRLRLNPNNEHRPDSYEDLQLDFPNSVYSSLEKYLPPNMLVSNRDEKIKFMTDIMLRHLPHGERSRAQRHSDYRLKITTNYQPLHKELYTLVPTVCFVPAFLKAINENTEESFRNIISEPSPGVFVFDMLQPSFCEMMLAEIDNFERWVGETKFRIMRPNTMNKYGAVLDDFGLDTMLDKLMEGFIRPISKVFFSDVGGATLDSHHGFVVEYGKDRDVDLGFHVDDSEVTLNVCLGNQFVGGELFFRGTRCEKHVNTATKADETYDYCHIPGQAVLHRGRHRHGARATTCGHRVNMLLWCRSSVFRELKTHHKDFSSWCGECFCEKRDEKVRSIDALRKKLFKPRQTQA

[3] = target: T3, GSRhino-TAP-tagged ICU11 (INCURVATA11) (Arabidopsis thaliana) (UniProt Q3ED68)
T3 sequence: T1 chain

B1: JMJ14, Q8GUI6 1-954 (protein)
chain: MDQLASLAESVAMEEDSEKQSIKGESSLEPDSTPSSPKITARWNPSEACRPLVDDAPIFYPTNEDFDDPLGYIEKLRSKAESYGICRIVPPVAWRPPCPLKEKKIWENSKFPTRIQFIDLLQNREPIKKSTKTKKRKRRRISKIGYTRRKRDSGCDTASSGSSDSEGKFGFQTGPDFTLEEFQKYDEYFKECYFQSEDHPGSKASENKKFKPKVKDLEGEYWRIVEQATDEVEVYYGADLETKKFGSGFPKYKPGYPISEADQYSQCGWNLNNLSRLPGSVLAFESCDISGVIVPWLYVGMCFSTFCWHVEDHHLYSMNYLHTGDPKVWYGIPGNHAESFENVMKKRLPDLFEEQPDLLHQLVTQLSPRILKEEGVPVYRAVQRSGEFILTFPKAYHSGFNCGFNCAEAVNVAPVDWLVHGQNAVEGYSKQRRKSSLSHDKLLLGAAMEATYCLWELSLSKKKTPVIARWKRVCSEDGLLTKAVKKRVQMEEERLNHLQDGFSLRKMEGDFDNKRERECFLCFYDLHMSASSCKCSPNRFACLIHAKDLCSCESKDRYILIRHTLDELWALVRALEGDLDAIDLWASKCRDQYPSQHPRAREYAYLKSAPCIKSRGSSKVQQREQNNLQLVSERLQSDLTSNKEVQLKQDGDSDVNRHGHESERNHVHGITDKSAVTDVKLGVGGKFDEKKISVESQNPHSVSDVGCSELAKKVDGCLGGKDQNAATNRLSLSVELLSSGSLVVKKLWCSKQAIYPKGFKSRVKFLSVLDPTNLTNYISEVLDAGLLGPLFRVSVEDYPTENFSNVSAEKCWQMVTQRLKLEIIKKCDQPVSSLTSLQPLESINGLEMFGFLSPHVIKVVEALDPKHQLEEYWNQKAVKLFGAEPIKEGEKDDTEKGGASDPSLDRDTRLLRGLLKKATPEELVMMHGLLCGETRNTELKEELSTLVDKMEISP
binding [1]: no binding

B2: INCURVATA11 (ICU11), endogenous (protein, UniProt Q3ED68 1-397)
chain: T1 chain
binding [2]: no binding

B6: COP9 SIGNALOSOME SUBUNIT 1 (CSN1) (protein, UniProt P45432 1-441)
chain: MERDEEASGPMMEMCTNGGEETSNRRPIISGEPLDIEAYAALYKGRTKIMRLLFIANHCGGNHALQFDALRMAYDEIKKGENTQLFREVVNKIGNRLGEKYGMDLAWCEAVDRRAEQKKVKLENELSSYRTNLIKESIRMGYNDFGDFYYACGMLGDAFKNYIRTRDYCTTTKHIIHMCMNAILVSIEMGQFTHVTSYVNKAEQNPETLEPMVNAKLRCASGLAHLELKKYKLAARKFLDVNPELGNSYNEVIAPQDIATYGGLCALASFDRSELKQKVIDNINFRNFLELVPDVRELINDFYSSRYASCLEYLASLKSNLLLDIHLHDHVDTLYDQIRKKALIQYTLPFVSVDLSRMADAFKTSVSGLEKELEALITDNQIQARIDSHNKILYARHADQRNATFQKVLQMGNEFDRDVRAMLLRANLLKHEYHARSARKL
binding [2]: binds | binding [3]: binds

Next, values leading:

binding [2]: binds | binding [3]: binds
B3: NAC DOMAIN CONTAINING PROTEIN 50 (NAC050) (protein, UniProt Q9SQX9 1-447)
chain: MGRESLAVVSSPPSATAPSTAVSATSLAPGFRFHPTDEELVSYYLKRKVLGKPVRFDAIGEVDIYKHEPWDLAVFSKLKTRDQEWYFFSALDKKYGNGARMNRATNKGYWKATGKDREIRRDIQLLGMKKTLVFHSGRAPDGLRTNWVMHEYRLVEYETETNGSLLQDAYVLCRVFHKNNIGPPSGNRYAPFMEEEWADGGGALIPGIDVRVRVEALPQANGNNQMDQEMHSASKDLININELPRDATPMDIEPNQQNHHESAFKPQESNNHSGYEEDEDTLKREHAEEDERPPSLCILNKEAPLPLLQYKRRRQNESNNNSSRNTQDHCSSTITTVDNTTTLISSSAAAATNTAISALLEFSLMGISDKKENQQKEETSPPSPIASPEEKVNDLQKEVHQMSVERETFKLEMMSAEAMISILQSRIDALRQENEELKKKNASGQAS

binding [2]: binds | binding [3]: binds
B4: NAC052 (protein, UniProt Q9SQY0 1-451)
chain: MGRESVAVVTAPPSATAPGTASVATSLAPGFRFHPTDEELVSYYLKRKVLGQPVRFDAIGEVDIYKHEPWDLAVFSRLKTRDQEWYFYSALDKKYGNGARMNRATNRGYWKATGKDREIRRDILLLGMKKTLVFHSGRAPDGLRTNWVMHEYRLVEYETEKNGNLVQDAYVLCRVFHKNNIGPPSGNRYAPFMEEEWADDEGALIPGIDVKLRLEPPPVANGNDQMDQEIQSASKSLININEPPRETAPLDIESDQQNHHENDLKPEEHNNNNNYDENEETLKREQMEEEERPPRPVCVLNKEAPLPLLQYKRRRQSESNNNSSRNTQDHCSSTTTTVDNTTTLISSSAAATNTAISALLEFSLMGISDKKEKPQQPLRPHKEPLPPQTPLASPEEKVNDLQKEIHQMSVERETFKLEMMSAEAMISILQSRIDALRQENEELKKNNANGQ

binding [2]: no binding | binding [3]: binds
B5: TRB2, endogenous (protein, UniProt Q9FJW5 1-299)
chain: MGAPKQKWTPEEEAALKAGVLKHGTGKWRTILSDTEFSLILKSRSNVDLKDKWRNISVTALWGSRKKAKLALKRTPPGTKQDDNNTALTIVALTNDDERAKPTSPGGSGGGSPRTCASKRSITSLDKIIFEAITNLRELRGSDRTSIFLYIEENFKTPPNMKRHVAVRLKHLSSNGTLVKIKHKYRFSSNFIPAGARQKAPQLFLEGNNKKDPTKPEENGANSLTKFRVDGELYMIKGMTAQEAAEAAARAVAEAEFAITEAEQAAKEAERAEAEAEAAQIFAKAAMKALKFRIRNHPW
